# From patent US12545653B2, “Compound as PPAR agonist and application thereof” (USA Elixiria Biotech Inc., priority 2019, dated 2026)
# For part of these data: At least one structure is not confirmed: it was looked up by name or label, or the drawing left a doubt. Some entries share one result that the patent states for a list of compounds.
# Tested on: APP/PS1 transgenic mice
# Assay: Alzheimer's disease model, eight-arm radial water maze and brain gene expression
# Format: in vivo, mouse
# Conditions: 30 days in food, 10 mg/kg body weight/day (donepezil 3 mg/kg body weight/day), eight-arm water maze
# From the text: A common indicator used in academia in memory and dementia experiments is the number of errors in the water maze (reference memory). More errors mean poorer memory. On the last 3 days of dosing, eight-arm radial water maze was used by experimenters who were blind to drug treatment. As a classic experimental instrument, to detect slight deficits in learning and memory, the eight-arm water maze is more sensitive than not only Morris maze, but also Six-arm radial water maze. For details, see reference 8: Alamed J et al. Two-day radial-arm water maze learning and memory task; robust resolution of amyloid-related memory deficits in transgenic mice [J]. […] This experiment uses an eight-arm water maze built in accordance with the above literature. The eight-arm water maze is placed in a basin with an interior diameter of 102 cm. Each arm measures 30 cm long, 14.5 cm wide, and 40 cm high. Escape platform is located at the end of one of the arms. In the reference memory version of the task described here, the goal arm is held constant for all trials, with a different start arm on successive trials. […] Entry into an incorrect arm was scored as a spatial reference error. […] At the end of the experiments, the cerebral cortex and hippocampus of the mice were removed, RNA was extracted, and the expression of many genes was analyzed by semi-quantitative RT-PCR. […]
row,SMILES,"reduction in the number of errors (reference memory), third day compared with first day"
1,"CN(CCOc1ccc(CC2SC(=O)NC2=O)cc1)c1ccccn1 (stereo not drawn) [rosiglitazone, reference compound]",not significant

# Tested on: MPTP-HCl Parkinson's disease model mice
# Assay: Parkinson's disease model (MPTP-HCl), beam traversal test
# Conditions: MPTP-HCl/probenecid mice, 5 mg/kg body weight intraperitoneal daily, 35 days
row,SMILES,number of errors per step in beam traversal test compared with disease control group
1,"CN(CCOc1ccc(CC2SC(=O)NC2=O)cc1)c1ccccn1 (stereo not drawn) [rosiglitazone, reference compound]",not significant

# Tested on: dIoN-CCI rat model of trigeminal neuropathic pain
# Assay: Trigeminal neuralgia model (dIoN-CCI), Von Frey mechanical threshold
# Conditions: dIoN-CCI rats, oral 10 mg/kg body weight
row,SMILES,mechanical pain threshold 2 hours after oral administration
1,"CCc1ccc(CCCCc2ccc3c(c2)C(=O)CC3)cc1 [ELB00825, 6-(4-(4-ethylphenyl)butyl)-2,3-dihydro-1H-inden-1-one]",greater than 4.9 g
2,"CCc1ccc(CC/C=C/c2ccc3c(c2)OCCC3=O)cc1 [ELB001045, (E)-7-(4-(4-ethylphenyl)but-1-en-1-yl)chroman-4-one]",greater than 4.9 g
3,"CCc1ccc(CC/C=C/c2ccc3c(c2)C(=O)COC3)cc1 [ELB001046, (E)-6-(4-(4-ethylphenyl)but-1-en-1-yl)isochroman-4-one]",greater than 4.9 g
4,"CCc1ccc(CC/C=C/c2ccc3c(c2)C(=O)CCO3)cc1 [ELB001080, (E)-6-(4-(4-ethylphenyl)but-1-en-1-yl)chroman-4-one]",greater than 4.9 g
5,"CCc1ccc(OC/C=C/c2ccc3c(c2)C(=O)CC3)cc1 [ELB001115, (E)-6-(3-(4-ethylphenoxy)prop-1-en-1-yl)-2,3-dihydro-1H-inden-1-one]",greater than 4.9 g
6,"COc1ccc(CC/C=C/c2ccc3c(c2)C(=O)CC3)cc1 [ELB001116, (E)-6-(4-(4-methoxyphenyl)but-1-en-1-yl)-2,3-dihydro-1H-inden-1-one]",greater than 4.9 g
7,"CCc1ccc(CC/C=C/c2ccc3c(c2)C(=O)CC3)nc1 [ELB001125, (E)-6-(4-(5-ethylpyridin-2-yl)but-1-en-1-yl)-2,3-dihydro-1H-inden-1-one]",greater than 4.9 g
